Source: PubChem BioAssay AID652272 (Drosophila RNAi Screening Center, 2013)
Purpose: 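Genes whose knock-down decreases or increases Hedgehog reporter output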 (primary screen). System: Drosophila clone 8 (Cl8) cells. Reagents: long dsRNA against Drosophila genes. Read-out: 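Firefly light from a Hedgehog-responsive ptc promoter reporter and Renilla reference light, both read on a plate reader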. Scale: firefly Hh reporter signal: higher = more ptc reporter light; Renilla reference signal: higher = more Renilla control light. Active means: 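Hit when the z-score averaged over two replicates is under -2 or over +3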. Calls: active = hit: reporter lowered or raised; inactive = not a hit.
The screen tested about 21,000 reagents; below is an unselected part of those that have a named target and a result. In the full data, 503 (2.4%) were called active. 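Raw plate light values, not normalised; calls rest on replicate z-scores that were not deposited; hits include reporter decreases as well as increases.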 Names joined by + are all predicted targets of the reagent. Not stated in the record: the amount of reagent, the time to read-out.

target,amplicon,"firefly Hh reporter signal, replicate 1","firefly Hh reporter signal, replicate 2","firefly Hh reporter signal, replicate 3","Renilla reference signal, replicate 1","Renilla reference signal, replicate 2",outcome
CG13615 (GeneID 42916),DRSC14618,5.41e5,98566,,28272,3619,inactive
cact (GeneID 34969),DRSC03501,86752,51932,,5061,2604,inactive
path (GeneID 39106),DRSC10361,22989,55207,53704,5329,3975,inactive
CG14085 (GeneID 40099),DRSC10089,99936,89542,,4003,2368,inactive
chb (GeneID 43901),DRSC11469,2.62e5,,,5815,,inactive
CG14417 (GeneID 31274),DRSC18638,69293,2.01e5,,2397,8918,inactive
CG7011 + Prp31,DRSC10760,1.72e5,73473,,7284,2845,inactive
Nach (GeneID 36864),DRSC07478,58946,32455,,2016,3133,inactive
hzg (GeneID 39748),DRSC10549,85271,,,710,2353,inactive
CG30345 (GeneID 246553),DRSC05144,97589,2.31e5,,2344,9442,inactive
Nagk (GeneID 41863),DRSC15994,1.13e5,1.25e5,,4637,4795,inactive
tn (retired record) (GeneID 44536),DRSC05768,81202,1.91e5,,2338,6848,inactive
tn (retired record) (GeneID 44536),DRSC06532,91911,50508,,4496,2492,inactive
ABCB7 (GeneID 38193),DRSC08603,77004,35779,,2717,3186,inactive
nop5 (GeneID 33966),DRSC03582,1.22e5,38672,,3412,4854,inactive
Rab11 (GeneID 42501),DRSC16809,4.34e5,92723,,26618,509,inactive
CG17929 (GeneID 41978),DRSC15291,96007,1.01e5,,2139,2216,inactive
MtnF (GeneID 12798528),DRSC13683,46688,1.58e5,,10472,3208,inactive
Src64B (GeneID 48973),DRSC08700,43493,47357,,5179,3525,inactive
CG14246 (GeneID 3772140),DRSC14741,2.20e5,5.77e5,2.45e5,7616,3360,inactive
CG4911 (GeneID 39043),DRSC10456,63936,39404,,3145,1783,inactive
CG34320 (retired record) (GeneID 5740595),DRSC17682,6.58e5,2.70e5,,32761,5248,inactive
dj (GeneID 40838),DRSC12625,1.04e5,97702,,4277,3187,inactive
Jhbp14 (GeneID 34728),DRSC01988,1.65e5,58950,,4056,4915,inactive
mex1 (GeneID 39677),DRSC11368,2.00e5,,,8209,5824,inactive
MED4 (GeneID 38799),DRSC11014,92333,46770,,3723,2070,inactive
CG14777 (GeneID 31099),DRSC18563,1.04e5,3.01e5,,4076,10823,inactive
hec (GeneID 32246),DRSC19895,1.02e5,2.20e5,,2480,8745,inactive
ppk26 (GeneID 38835),DRSC10991,51584,40732,,5284,2740,inactive
Polr2E (GeneID 36160),DRSC06100,75428,30752,,1595,1731,inactive
Syn (GeneID 41247),DRSC16876,97057,1.23e5,,2987,3520,inactive
pum (GeneID 41094),DRSC12722,2.59e5,,,5250,,inactive
pum (GeneID 41094),DRSC12726,3.99e5,,,7292,,inactive
pum (GeneID 41094),DRSC17037,86631,5.92e5,1.41e5,3715,3924,inactive
pum (GeneID 41094),DRSC17038,1.04e5,1.54e5,,3929,4406,inactive
Trm7-34 (GeneID 42508),DRSC16171,6.23e5,1.05e5,,29709,520,inactive
E(spl)m4-BFM (GeneID 43157),DRSC16992,5.98e5,98034,,29252,2672,inactive

Look-ups from the list.
For “outcome”, hec (GeneID 32246) [DRSC19895] shows inactive
For “outcome”, MED4 (GeneID 38799) [DRSC11014] is entered as inactive
ppk26 (GeneID 38835) [DRSC10991], firefly Hh reporter signal, replicate 2 = 40732
Result of CG14777 (GeneID 31099) [DRSC18563] in “firefly Hh reporter signal, replicate 2”: 3.01e5
For “Renilla reference signal, replicate 1”, pum (GeneID 41094) [DRSC17037] shows 3715
For “outcome”, chb (GeneID 43901) [DRSC11469] has inactive

The results go on:
target,amplicon,"firefly Hh reporter signal, replicate 1","firefly Hh reporter signal, replicate 2","firefly Hh reporter signal, replicate 3","Renilla reference signal, replicate 1","Renilla reference signal, replicate 2",outcome
Taf9 (GeneID 32762),DRSC20326,90201,78813,,2096,1986,inactive
Sugb (GeneID 39314),DRSC10815,1.09e5,65642,,5154,2534,inactive
GatC + PolG2,DRSC03312,65900,64305,,2810,2834,inactive
Nse4 (GeneID 34434),DRSC02239,1.05e5,86993,,2434,7298,inactive
ranshi (GeneID 41041),DRSC16564,69513,92162,,2459,5104,inactive
Spn42Dc (GeneID 35600),DRSC05010,88048,40747,,2123,3544,inactive
CG7378 (GeneID 32888),DRSC20041,56066,1.51e5,,1474,6593,inactive
CG12637 (GeneID 31996),DRSC17845,60226,2.96e5,,1584,10960,inactive
Jhbp16 (GeneID 42552),DRSC15039,3.60e5,1.35e5,,17888,2663,inactive
alt (GeneID 42127),DRSC15315,1.11e5,66672,,5456,2454,inactive
CCKLR-17D3 (GeneID 32864),DRSC20015,1.10e5,2.41e5,,1584,11597,inactive
CCKLR-17D3 (GeneID 32864),DRSC20017,59912,1.59e5,,880,6625,inactive
y (GeneID 30980),DRSC18853,78971,4.20e5,,1968,14937,inactive
Doc3 (GeneID 39036),DRSC10480,34059,65495,,3574,4816,inactive
Tig (GeneID 33896),DRSC03456,48650,41581,,1072,5317,inactive
CG15706 (GeneID 36799),DRSC06577,66025,36592,,1781,2560,inactive
Hsf (GeneID 37068),DRSC07443,1.56e5,1.10e5,,5603,3747,inactive
PH4alphaMP (GeneID 43624),DRSC17031,74392,83194,,2856,2135,inactive
ifc (GeneID 33836),DRSC03549,1.41e5,72596,,5491,3586,inactive
CG1578 (GeneID 32135),DRSC19729,1.71e5,99552,,3734,2514,inactive
CG5805 (GeneID 42950),DRSC15878,1.36e5,87089,,5602,3267,inactive
CG4734 (GeneID 36477),DRSC06885,1.53e5,70859,,3924,5479,inactive
Trx2 (GeneID 34281),DRSC03622,1.57e5,87905,,3938,6208,inactive
Mdh2 (GeneID 42185),DRSC16361,5.90e5,73349,,29872,1527,inactive
CG4842 (GeneID 39817),DRSC10453,1.42e5,,,1381,4465,inactive
Rtnl2 (GeneID 40903),DRSC12609,1.00e5,1.84e5,,2104,5137,inactive
Cog4 (GeneID 34442),DRSC03057,1.32e5,54698,,4649,2073,inactive
Ref2 (GeneID 34667),DRSC02563,76760,48688,,2192,4618,inactive
Acsx2 (GeneID 42353),DRSC14308,6.27e5,81968,,30122,2295,inactive
CG9609 (GeneID 32663),DRSC20199,1.25e5,1.15e5,,2604,2715,inactive
Prm (GeneID 39002),DRSC08941,83697,2.34e5,,2326,7881,inactive
Prm (GeneID 39002),DRSC08942,91372,2.61e5,,2962,11002,inactive
Prm (GeneID 39002),DRSC11255,1.46e5,92112,,6204,4085,inactive
CG13847 (GeneID 42636),DRSC14697,43930,30413,,2491,1730,active
CG8064 (GeneID 42196),DRSC16373,1.13e5,68544,,4880,3376,inactive
CR43096 + CG43060,DRSC12654,2.94e5,,,5579,,inactive
